Measured values as given in PMC3575238.
Results are given in words; binding and its absence hold for the method and conditions named. Binding seen in cells or lysates may run through a third protein. Some entries that bind do so weakly or less than the wild type.

Biological target: T1, Myb-binding protein 1a (MYBBP1A) (human (endogenous in MCF-7)) (UniProt Q9BQG0)
T1 sequence: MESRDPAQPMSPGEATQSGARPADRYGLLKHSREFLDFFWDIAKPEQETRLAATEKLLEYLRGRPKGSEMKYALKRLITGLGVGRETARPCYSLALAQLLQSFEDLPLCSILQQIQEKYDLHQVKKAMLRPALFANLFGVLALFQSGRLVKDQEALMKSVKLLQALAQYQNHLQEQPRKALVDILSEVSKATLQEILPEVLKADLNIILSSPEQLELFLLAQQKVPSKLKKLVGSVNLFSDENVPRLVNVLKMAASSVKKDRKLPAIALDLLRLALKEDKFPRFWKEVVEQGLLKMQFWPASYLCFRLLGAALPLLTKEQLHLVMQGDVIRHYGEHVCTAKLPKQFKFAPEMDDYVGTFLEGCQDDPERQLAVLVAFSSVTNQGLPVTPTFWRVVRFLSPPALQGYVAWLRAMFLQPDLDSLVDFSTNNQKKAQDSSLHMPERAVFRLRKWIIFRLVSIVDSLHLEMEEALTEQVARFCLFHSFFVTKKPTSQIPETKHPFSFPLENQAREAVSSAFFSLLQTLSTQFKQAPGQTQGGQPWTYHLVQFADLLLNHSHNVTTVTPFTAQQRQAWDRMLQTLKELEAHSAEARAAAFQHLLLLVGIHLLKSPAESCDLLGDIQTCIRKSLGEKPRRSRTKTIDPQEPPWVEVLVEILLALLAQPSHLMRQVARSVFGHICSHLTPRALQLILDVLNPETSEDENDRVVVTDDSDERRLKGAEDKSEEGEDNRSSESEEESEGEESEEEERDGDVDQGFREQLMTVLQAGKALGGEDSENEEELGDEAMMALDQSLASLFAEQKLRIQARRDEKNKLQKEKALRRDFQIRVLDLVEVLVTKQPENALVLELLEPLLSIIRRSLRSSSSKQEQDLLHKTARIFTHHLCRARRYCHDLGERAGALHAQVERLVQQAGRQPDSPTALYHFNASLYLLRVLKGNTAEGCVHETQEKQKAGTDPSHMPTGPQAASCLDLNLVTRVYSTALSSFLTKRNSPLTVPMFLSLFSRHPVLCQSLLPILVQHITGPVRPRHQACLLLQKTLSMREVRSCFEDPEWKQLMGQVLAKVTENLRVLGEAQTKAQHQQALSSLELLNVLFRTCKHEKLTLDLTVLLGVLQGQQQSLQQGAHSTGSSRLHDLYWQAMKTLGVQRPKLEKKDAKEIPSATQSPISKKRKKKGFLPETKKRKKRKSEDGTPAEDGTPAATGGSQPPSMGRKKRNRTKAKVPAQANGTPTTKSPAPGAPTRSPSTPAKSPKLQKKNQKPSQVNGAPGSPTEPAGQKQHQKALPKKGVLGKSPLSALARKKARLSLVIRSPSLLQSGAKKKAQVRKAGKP
Assay: co-IP; MCF-7 cells cultured under detached conditions for 2 h; lysed in TNE buffer (10 mM Tris-HCl pH 7.8, 1% NP-40, 0.15 M NaCl, 1 mM EDTA); immunoprecipitated with normal rabbit IgG or anti-MYBBP1A antibodies on protein G Sepharose; immunoblot for MYBBP1A and p53

- binding: binds
Substance: Tumor suppressor p53 (from UniProt P04637 1-393)
